Experimental data published in paper PMC6821256.
These are yes or no findings as the source states them, for the method shown. Some results given as binding are weak or reduced against the parent protein; the word gives no strength. For part of these data: Tags and fused reporters may be left off the sequences shown.

Experiments:
[1] = molecular target: T1, Mde2 (yeast two-hybrid construct) (Schizosaccharomyces pombe) (UniProt P87309); assay: two-hybrid; S. cerevisiae AH109, pGADT7 and pGBKT7 plasmids; growth on SD without leucine, tryptophan, histidine and adenine, 5 days at 30°C
T1 sequence: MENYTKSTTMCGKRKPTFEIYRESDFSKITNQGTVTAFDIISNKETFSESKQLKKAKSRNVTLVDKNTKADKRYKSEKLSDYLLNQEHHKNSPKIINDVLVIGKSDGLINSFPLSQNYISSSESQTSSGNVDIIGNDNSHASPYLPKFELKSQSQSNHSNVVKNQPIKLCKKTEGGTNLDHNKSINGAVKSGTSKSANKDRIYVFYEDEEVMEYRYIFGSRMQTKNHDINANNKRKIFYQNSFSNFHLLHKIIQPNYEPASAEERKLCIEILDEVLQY

[2] = molecular target: T2, Rec10 (yeast two-hybrid construct) (Schizosaccharomyces pombe) (UniProt Q09823); assay: as above
T2 sequence: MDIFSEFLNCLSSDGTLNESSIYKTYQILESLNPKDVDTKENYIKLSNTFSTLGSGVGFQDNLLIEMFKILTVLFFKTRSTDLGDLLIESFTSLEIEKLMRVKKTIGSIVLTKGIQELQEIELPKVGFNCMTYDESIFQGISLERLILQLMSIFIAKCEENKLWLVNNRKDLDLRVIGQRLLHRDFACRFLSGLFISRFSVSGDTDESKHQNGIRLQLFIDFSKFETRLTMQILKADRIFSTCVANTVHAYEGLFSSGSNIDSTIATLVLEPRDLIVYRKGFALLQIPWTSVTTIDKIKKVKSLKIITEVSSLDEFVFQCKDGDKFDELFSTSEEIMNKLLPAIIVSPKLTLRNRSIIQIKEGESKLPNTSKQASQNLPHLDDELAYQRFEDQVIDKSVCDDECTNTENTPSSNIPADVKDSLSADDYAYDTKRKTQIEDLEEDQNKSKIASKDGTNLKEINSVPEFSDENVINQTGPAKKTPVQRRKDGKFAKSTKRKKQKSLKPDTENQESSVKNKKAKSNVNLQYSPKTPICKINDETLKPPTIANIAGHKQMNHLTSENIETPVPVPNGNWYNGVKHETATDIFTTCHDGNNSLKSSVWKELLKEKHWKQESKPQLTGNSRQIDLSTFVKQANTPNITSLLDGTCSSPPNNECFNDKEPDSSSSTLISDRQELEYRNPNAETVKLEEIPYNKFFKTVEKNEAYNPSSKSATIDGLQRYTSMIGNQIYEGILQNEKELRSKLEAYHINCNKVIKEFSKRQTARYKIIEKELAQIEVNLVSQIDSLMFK

[3] = molecular target: T3, Rec15 full-length (FL, 1-180; yeast two-hybrid construct) (Schizosaccharomyces pombe) (UniProt Q09094); assay: as above
T3 sequence: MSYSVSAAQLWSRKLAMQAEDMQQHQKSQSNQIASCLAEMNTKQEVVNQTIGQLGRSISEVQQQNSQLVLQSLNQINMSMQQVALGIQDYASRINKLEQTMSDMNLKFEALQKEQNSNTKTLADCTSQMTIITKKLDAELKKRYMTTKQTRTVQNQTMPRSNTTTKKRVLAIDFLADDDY

[4] = molecular target: T2, Rec10 (yeast two-hybrid construct) (Schizosaccharomyces pombe); assay: yeast three-hybrid; S. cerevisiae Y190, bait Rec10 and prey Rec15 (pGADT7, pGBKT7) with the empty pADE1 (no Hop1); growth on SD w/o LWAH + 10 mM 3-AT, 5 days at 30°C
[5] = molecular target: T4, Rec10-E309A (yeast two-hybrid construct) (Schizosaccharomyces pombe) (UniProt Q09823); assay: yeast three-hybrid; S. cerevisiae Y190, bait Rec10 and prey Rec15 (pGADT7, pGBKT7) with pADE1 expressing wild-type Hop1 under pTDH3; growth on SD w/o LWAH + 10 mM 3-AT, 5 days at 30°C
T4 sequence: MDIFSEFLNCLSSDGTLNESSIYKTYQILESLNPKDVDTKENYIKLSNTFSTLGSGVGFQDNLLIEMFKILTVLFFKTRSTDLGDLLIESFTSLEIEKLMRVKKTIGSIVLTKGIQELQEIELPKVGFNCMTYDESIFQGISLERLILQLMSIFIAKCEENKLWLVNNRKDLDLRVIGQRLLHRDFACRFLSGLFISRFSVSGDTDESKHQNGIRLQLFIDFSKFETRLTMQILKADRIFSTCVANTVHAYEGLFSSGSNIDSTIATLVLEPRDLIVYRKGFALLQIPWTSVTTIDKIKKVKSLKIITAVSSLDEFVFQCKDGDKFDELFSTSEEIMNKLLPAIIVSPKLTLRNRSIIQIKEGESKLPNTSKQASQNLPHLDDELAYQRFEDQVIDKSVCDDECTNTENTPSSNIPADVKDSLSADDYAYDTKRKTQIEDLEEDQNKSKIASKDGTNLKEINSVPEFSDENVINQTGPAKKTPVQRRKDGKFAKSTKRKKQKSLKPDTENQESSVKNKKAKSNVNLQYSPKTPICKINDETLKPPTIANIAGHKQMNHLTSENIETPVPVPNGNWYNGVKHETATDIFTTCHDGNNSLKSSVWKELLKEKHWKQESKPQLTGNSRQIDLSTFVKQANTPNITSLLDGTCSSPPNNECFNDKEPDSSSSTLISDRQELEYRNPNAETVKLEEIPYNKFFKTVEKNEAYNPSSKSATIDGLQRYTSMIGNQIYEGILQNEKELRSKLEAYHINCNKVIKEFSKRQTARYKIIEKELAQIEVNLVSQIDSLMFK

[6] = molecular target: T3, Rec15 full-length (FL, 1-180; yeast two-hybrid construct) (Schizosaccharomyces pombe); assay: as above

Measured: binding

B1: Rec15 full-length (FL, 1-180; yeast two-hybrid construct) (protein, UniProt Q09094 1-180)
chain: MSYSVSAAQLWSRKLAMQAEDMQQHQKSQSNQIASCLAEMNTKQEVVNQTIGQLGRSISEVQQQNSQLVLQSLNQINMSMQQVALGIQDYASRINKLEQTMSDMNLKFEALQKEQNSNTKTLADCTSQMTIITKKLDAELKKRYMTTKQTRTVQNQTMPRSNTTTKKRVLAIDFLADDDY
binds: [1] | [2] | [3] | [4]

B2: Hop1 expressed from pADE1 (third protein of the yeast three-hybrid assay) (protein, UniProt Q9P7P2 1-528)
chain: MNSYKEEILQTKSDFTLKNLIFFAISTLCYKRALFNENCYKKVNFEIEHFKGADFDCQLKPTVVSLQAGVDKEADSFLEMMKTYIFSLVSMKVPFTVYLIISSQCKSILEDDAVEKEIFSFTINPGSEEKICCESFVSYQRSERFVIKLFLSGNVKTECKDEEKVVQIITKMERFQLSKGEATKAGVFLNTVETKDCMSWLNRGEFKDIVSFYESNNGIAISHCSHAFVPISTEKIMINKESSLFDSQEKIDSQLEKFLQPLKYDEIGSTQILDEQSVEKSLSQGKCEKMQNESRGLREIKNNNPCEEVKKSNWLKKNISGSDKVDKAEKKKALLNCECGDSTEDSEMFQCERCDGWVHCACYGFESDSDPRQPNQLLCYTCLLVDSESSLYDRMTMLVAYRRAIRCIWASEYQGFQKLAARLNCSYADAKRIEERLVNENIIYKEKKRKWIYFTNKSPEMVSYLREKYFTPSRWISHLNFQNYRQENQRVNMRSFLRPERMEVIERPKKVSKTSNTKETDTMKPLRI
binds: [5] | [6]
